Experimental data published in patent publication US20240124528A1, “ANTAGONIST OF INTERLEUKIN-17B RECEPTOR (IL-17RB) AND USE THEREOF” (Academia Sinica, priority 2020, published 2024).
No constants are given. Whether binding was seen depends on the method and setting. In cells and extracts the contact can be indirect. Some results given as binding are weak or reduced against the parent protein; the word gives no strength. For part of these data: Sequences can lack the tags named with a protein. Values belong to the substance of their own block, whether it stands above or below them.

Chains of the proteins cited; added tags and fusions are not shown.
UniProt O43734: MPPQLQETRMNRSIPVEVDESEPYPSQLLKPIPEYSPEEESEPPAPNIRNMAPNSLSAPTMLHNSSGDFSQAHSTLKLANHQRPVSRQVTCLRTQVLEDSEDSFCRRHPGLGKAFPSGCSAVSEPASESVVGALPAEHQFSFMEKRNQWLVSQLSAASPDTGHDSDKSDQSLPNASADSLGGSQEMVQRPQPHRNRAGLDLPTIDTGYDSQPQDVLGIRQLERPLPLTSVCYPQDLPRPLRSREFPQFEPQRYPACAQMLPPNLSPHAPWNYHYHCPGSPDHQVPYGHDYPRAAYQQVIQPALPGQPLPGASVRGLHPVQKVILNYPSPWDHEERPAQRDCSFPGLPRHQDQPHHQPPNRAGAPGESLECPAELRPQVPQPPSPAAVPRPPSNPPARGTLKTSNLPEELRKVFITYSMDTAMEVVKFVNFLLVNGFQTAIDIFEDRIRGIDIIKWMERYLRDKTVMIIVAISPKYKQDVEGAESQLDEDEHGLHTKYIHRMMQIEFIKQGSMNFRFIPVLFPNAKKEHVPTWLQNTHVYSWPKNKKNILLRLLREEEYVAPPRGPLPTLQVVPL
UniProt Q2M2I8: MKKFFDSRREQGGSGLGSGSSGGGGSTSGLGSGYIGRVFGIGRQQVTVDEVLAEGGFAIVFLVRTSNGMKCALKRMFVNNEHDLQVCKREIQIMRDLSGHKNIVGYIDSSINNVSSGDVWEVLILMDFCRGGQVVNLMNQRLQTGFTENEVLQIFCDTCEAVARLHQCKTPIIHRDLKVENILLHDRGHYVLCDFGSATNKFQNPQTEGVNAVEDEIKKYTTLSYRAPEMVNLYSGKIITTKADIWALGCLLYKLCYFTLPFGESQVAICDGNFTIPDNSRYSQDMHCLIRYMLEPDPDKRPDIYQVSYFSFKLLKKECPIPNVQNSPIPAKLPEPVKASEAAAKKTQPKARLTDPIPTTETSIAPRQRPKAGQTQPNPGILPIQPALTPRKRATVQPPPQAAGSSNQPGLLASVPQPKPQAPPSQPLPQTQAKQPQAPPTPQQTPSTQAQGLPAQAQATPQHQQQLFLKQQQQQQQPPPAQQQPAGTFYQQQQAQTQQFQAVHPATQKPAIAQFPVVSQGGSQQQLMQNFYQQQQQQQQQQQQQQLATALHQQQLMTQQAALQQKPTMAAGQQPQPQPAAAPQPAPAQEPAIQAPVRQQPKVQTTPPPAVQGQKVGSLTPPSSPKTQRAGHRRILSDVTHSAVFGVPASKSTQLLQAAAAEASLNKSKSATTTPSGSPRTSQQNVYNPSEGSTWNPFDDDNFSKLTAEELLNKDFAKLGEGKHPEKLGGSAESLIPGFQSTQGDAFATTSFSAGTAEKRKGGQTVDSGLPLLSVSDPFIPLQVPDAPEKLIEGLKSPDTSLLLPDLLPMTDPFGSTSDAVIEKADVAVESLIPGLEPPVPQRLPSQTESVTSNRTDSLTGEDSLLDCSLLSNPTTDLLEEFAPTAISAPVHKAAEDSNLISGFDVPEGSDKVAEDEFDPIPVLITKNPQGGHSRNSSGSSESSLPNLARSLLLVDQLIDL
UniProt Q5TCX8: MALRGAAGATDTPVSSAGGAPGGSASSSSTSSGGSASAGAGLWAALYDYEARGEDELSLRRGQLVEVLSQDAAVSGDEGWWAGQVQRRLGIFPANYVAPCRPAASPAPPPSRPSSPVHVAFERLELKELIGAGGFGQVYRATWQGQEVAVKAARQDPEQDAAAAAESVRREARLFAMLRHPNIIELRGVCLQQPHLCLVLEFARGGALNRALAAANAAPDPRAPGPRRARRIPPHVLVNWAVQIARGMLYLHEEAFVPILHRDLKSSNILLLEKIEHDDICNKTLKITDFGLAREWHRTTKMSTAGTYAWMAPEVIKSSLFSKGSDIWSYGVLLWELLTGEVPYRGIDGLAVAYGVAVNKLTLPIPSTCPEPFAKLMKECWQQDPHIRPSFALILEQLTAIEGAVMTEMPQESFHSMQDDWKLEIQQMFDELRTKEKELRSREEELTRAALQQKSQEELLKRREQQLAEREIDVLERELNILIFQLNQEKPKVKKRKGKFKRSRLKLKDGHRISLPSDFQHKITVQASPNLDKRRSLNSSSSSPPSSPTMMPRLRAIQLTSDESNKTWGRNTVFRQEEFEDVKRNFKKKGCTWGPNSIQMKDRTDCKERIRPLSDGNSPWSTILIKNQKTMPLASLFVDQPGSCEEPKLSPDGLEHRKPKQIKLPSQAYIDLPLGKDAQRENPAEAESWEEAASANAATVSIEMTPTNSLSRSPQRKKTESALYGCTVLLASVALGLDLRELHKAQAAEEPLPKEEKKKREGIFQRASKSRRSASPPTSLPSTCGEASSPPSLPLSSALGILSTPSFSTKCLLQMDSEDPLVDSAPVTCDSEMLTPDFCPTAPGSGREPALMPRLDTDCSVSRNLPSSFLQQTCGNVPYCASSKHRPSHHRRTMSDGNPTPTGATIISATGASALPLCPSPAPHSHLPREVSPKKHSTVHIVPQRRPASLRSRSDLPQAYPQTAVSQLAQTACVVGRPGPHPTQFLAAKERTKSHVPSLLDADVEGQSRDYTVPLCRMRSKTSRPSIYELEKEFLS
UniProt Q86Z02: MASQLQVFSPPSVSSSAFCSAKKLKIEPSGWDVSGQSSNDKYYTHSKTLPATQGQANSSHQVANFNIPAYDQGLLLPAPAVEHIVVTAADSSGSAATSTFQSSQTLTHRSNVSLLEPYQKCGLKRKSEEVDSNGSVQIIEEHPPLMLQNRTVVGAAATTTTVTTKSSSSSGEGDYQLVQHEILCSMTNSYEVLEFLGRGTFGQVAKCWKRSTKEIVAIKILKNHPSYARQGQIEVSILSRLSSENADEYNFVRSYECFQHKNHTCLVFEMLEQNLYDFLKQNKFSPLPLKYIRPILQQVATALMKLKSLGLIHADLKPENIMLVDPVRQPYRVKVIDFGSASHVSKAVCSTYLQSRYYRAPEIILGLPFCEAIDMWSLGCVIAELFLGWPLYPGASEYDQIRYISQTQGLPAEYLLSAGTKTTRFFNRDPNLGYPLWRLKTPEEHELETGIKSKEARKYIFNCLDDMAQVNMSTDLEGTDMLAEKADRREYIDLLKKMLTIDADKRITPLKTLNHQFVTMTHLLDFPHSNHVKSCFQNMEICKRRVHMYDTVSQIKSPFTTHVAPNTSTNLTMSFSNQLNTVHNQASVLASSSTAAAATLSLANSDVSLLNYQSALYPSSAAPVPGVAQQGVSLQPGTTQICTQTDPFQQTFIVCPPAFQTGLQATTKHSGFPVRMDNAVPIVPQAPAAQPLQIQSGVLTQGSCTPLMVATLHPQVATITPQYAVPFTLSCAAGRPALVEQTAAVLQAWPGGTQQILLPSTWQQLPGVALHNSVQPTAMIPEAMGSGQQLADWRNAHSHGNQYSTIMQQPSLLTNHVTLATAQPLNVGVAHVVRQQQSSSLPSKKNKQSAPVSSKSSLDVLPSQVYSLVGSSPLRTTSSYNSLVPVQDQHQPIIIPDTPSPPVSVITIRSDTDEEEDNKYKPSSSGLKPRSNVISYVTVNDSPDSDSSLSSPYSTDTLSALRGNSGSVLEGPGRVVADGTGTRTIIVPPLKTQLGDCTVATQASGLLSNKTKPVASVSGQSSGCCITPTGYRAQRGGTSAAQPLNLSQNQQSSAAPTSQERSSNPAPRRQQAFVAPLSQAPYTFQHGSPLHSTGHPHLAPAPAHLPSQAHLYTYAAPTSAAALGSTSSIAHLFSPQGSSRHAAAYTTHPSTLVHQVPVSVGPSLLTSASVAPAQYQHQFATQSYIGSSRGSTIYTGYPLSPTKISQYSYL

Legend:
[1] = molecular target: T1, IL-17RB-Flag (Flag-tagged IL-17RB, wild type) (human) (UniProt Q9NRM6); assay: co-IP with anti-Flag agarose, IL-17RB-KO BxPC3 cells, rIL-17B (FIG. 6G)
T1 sequence: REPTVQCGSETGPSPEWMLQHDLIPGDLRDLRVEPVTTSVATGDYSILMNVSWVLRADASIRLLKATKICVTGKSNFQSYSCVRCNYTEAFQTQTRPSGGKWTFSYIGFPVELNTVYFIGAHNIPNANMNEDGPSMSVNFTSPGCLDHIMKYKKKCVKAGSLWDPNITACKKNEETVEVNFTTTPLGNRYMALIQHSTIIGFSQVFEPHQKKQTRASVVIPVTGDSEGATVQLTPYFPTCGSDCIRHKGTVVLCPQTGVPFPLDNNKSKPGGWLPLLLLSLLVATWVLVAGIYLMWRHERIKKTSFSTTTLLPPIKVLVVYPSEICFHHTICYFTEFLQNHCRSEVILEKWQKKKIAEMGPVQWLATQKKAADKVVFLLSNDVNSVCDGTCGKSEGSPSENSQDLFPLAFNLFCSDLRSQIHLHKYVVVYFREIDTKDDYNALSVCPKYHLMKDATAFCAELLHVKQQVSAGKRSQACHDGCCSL

[2] = molecular target: T2, interleukin-17 receptor B (IL-17RB), human, endogenous in pancreatic cancer cells (human) (UniProt Q9NRM6); assay: co-IP with anti-IL-17RB, CFPAC1 cells, rIL-17B dose series, immunoblot (FIG. 3B)
T2 sequence: T1 sequence

[3] = molecular target: T3, IL-17RB ΔH346˜F354, HA-tagged (human) (UniProt Q9NRM6); assay: reciprocal co-IP, 293T cells, rIL-17B (FIG. 5C); binding kept, inferred from 'alone'
T3 sequence: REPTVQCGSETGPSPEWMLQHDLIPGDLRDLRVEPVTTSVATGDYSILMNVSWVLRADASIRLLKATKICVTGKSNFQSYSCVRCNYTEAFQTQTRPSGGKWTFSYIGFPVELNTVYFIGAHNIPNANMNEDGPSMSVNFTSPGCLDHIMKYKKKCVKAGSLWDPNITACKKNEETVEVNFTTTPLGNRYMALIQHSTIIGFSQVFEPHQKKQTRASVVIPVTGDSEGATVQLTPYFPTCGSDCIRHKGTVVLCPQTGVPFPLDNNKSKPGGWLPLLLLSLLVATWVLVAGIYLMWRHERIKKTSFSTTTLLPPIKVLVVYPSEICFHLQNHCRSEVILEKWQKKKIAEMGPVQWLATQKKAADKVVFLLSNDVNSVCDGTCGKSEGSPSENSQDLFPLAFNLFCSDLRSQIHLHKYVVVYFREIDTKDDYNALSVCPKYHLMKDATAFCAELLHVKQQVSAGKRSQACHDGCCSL

[4] = molecular target: T4, IL-17RB ΔK470˜Q484, HA-tagged (human) (UniProt Q9NRM6); assay: as above
T4 sequence: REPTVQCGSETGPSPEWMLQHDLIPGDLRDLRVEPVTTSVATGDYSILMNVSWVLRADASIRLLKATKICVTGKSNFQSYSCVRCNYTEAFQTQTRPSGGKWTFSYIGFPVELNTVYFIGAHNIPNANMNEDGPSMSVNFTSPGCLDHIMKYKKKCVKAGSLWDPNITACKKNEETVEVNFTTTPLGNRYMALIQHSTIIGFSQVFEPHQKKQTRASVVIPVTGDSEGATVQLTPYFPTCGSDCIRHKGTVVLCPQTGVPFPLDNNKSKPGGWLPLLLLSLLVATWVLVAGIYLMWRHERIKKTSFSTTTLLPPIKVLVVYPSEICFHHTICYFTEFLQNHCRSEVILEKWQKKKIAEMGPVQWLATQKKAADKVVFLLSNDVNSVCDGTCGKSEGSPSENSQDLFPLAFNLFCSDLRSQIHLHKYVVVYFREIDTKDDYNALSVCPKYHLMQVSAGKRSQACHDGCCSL

[5] = molecular target: T5, IL-17RB ΔF423˜F430, HA-tagged (human) (UniProt Q9NRM6); assay: as above
T5 sequence: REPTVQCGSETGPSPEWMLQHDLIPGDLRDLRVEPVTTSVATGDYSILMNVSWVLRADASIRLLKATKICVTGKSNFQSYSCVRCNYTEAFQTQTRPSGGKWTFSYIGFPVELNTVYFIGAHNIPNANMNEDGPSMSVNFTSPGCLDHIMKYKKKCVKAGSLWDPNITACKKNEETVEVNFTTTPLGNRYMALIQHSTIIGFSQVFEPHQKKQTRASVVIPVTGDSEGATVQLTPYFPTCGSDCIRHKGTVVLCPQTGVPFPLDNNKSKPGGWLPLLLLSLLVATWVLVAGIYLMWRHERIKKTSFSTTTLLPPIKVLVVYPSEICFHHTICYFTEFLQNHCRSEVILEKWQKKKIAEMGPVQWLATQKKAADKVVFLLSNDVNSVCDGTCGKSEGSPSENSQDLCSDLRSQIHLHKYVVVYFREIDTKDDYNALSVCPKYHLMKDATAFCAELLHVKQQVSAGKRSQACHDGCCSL

[6] = molecular target: T6, IL-17RB ΔN458˜V462, HA-tagged (human) (UniProt Q9NRM6); assay: as above
T6 sequence: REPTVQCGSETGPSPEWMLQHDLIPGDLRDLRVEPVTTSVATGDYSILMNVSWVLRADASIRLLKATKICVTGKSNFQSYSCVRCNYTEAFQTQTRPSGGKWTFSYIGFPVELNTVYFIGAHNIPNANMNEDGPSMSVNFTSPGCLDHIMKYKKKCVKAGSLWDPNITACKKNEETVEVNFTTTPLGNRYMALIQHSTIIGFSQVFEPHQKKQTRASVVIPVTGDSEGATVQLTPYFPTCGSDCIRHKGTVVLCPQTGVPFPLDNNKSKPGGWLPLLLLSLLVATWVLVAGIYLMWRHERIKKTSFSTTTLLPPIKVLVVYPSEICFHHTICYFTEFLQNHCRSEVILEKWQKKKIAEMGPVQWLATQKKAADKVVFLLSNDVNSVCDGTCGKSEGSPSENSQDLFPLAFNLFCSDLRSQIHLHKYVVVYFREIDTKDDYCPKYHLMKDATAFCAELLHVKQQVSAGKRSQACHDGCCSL

[7] = molecular target: T7, IL-17RB ΔI373˜T384, HA-tagged (human) (UniProt Q9NRM6); assay: as above
T7 sequence: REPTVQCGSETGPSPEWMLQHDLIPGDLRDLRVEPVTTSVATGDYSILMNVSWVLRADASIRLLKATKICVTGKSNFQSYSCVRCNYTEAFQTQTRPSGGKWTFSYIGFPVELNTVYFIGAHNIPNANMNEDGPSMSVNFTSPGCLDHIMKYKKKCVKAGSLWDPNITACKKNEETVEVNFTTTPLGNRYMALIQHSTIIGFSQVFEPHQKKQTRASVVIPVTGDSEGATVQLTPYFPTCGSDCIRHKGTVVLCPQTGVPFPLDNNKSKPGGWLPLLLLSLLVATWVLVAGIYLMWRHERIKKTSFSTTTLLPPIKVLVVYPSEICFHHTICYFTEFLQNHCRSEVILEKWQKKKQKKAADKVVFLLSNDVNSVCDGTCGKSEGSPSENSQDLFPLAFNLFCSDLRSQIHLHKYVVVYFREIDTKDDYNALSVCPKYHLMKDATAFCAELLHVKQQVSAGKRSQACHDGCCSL

[8] = molecular target: T8, IL-17RB ΔQ484˜S502, HA-tagged (human) (UniProt Q9NRM6); assay: as above
T8 sequence: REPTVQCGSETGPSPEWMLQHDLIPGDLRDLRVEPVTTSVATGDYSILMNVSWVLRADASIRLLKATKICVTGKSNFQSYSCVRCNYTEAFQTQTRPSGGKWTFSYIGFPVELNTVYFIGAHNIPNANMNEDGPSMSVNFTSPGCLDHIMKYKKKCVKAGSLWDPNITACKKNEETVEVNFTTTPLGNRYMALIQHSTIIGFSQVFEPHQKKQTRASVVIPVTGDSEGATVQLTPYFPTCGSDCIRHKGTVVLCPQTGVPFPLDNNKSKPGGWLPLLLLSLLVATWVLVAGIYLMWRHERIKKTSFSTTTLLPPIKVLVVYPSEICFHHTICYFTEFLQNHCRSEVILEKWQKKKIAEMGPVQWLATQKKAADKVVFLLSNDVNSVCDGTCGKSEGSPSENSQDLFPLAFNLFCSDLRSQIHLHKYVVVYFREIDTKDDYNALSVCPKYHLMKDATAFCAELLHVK

binding [1]: binds
Substance: ACT1, endogenous (from UniProt O43734 1-574)

binding [2]: binds
Substance: AP2-associated protein kinase 1 (AAK1), endogenous (from UniProt Q2M2I8 1-961) (enzyme)

binding [3]: binds
binding [4]: binds
binding [5]: binds
binding [6]: binds
binding [7]: binds
binding [8]: binds
Substance: Flag-MLK4 (from UniProt Q5TCX8 1-1036) (enzyme)

binding [2]: binds
Substance: homeodomain-interacting protein kinase 1 (HIPK1), endogenous (from UniProt Q86Z02 1-1210) (enzyme)
